Our source for the binding values is patent US20170095537A1.

Protein sequences, listed by entry. Tags and fused reporters are not part of them. Lines headed by an entry give the natural chain unless they say otherwise; changes in a name come on top.
UniProt P07204: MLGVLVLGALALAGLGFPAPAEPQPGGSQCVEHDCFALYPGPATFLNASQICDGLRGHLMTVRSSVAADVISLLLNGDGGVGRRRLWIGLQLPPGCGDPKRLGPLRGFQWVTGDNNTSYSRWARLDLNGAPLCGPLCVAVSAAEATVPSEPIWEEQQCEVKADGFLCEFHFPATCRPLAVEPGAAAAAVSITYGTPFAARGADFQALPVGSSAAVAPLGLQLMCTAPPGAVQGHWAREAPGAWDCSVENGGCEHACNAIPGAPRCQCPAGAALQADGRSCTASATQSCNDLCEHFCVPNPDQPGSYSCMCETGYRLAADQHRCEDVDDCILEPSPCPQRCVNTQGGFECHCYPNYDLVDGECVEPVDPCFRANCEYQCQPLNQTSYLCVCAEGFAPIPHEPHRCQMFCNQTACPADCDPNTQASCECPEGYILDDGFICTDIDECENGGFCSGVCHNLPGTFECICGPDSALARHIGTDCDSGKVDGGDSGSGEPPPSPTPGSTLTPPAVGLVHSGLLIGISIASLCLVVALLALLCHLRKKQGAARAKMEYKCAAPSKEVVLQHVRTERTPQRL

In assay [1] the target is T1, recombinant CD14 (R&D Systems) (Homo sapiens) (UniProt P08571).
T1 sequence: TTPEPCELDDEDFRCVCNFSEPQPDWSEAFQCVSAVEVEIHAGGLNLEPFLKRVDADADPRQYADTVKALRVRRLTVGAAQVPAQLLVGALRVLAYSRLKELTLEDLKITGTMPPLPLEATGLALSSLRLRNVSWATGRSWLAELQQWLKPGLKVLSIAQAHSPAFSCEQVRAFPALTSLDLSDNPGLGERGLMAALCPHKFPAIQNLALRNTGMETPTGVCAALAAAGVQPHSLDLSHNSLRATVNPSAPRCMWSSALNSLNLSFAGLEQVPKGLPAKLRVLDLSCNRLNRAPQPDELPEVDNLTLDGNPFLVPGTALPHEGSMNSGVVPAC
The assay can be described thus: solid phase binding assay: rCD14 mixed with the TM protein, captured on anti-human CD14 antibody, detected with anti-c-Myc antibody.

Assay [2] has as its target T1, recombinant CD14 (R&D Systems) (Homo sapiens). The assay can be described thus: summary of the filing's binding experiments; assay not given.
Assay [3] has the same target. The assay can be described thus: FIG. 2A solid phase binding assay with prTMD23.
For assay [4] the target is unchanged. In words: solid phase binding assay: rCD14 (100 nM) pre-incubated with prTMD23, captured on immobilized mouse anti-human CD14 antibody, detected with biotinylated anti-c-Myc antibody and streptavidin-HRP/TMB.
Assay [5] has the same target. The assay can be described thus: solid phase binding assay: rCD14 (100 nM) pre-incubated with prTMD23 I442A, captured on immobilized mouse anti-human CD14 antibody, detected with biotinylated anti-c-Myc antibody and streptavidin-HRP/TMB.
Assay [6] shares this target. The assay can be described thus: FIG. 2B SPR with mrTMD23 (per methods).
Assay [7] has as its target recombinant mammalian-expressed rTMD23 (recombinant human thrombomodulin domain 2 plus domain 3, Ala242-Ser515) (Homo sapiens) (UniProt P07204). In words: surface plasmon resonance (BIAcore 3000), mrTMD23 immobilized on NTA sensor chip, rCD14 passed over in HBS-P buffer. (In general: SPR reads the build-up and loss of mass on a sensor chip optically.)

These are yes or no findings as the source states them, for the method shown. Some entries that bind do so weakly or less than the wild type.

On to “Pichia-expressed rTMD23 (recombinant human thrombomodulin domain 2 plus domain 3, Ala242-Ser515) (from UniProt P07204 242-515)”, for which the binding result in assay [1], in assay [2], in assay [3] and in assay [4] was “binds” throughout.
As to “Pichia-expressed recombinant TMD23^1442A (mutant rTMD23 that cannot activate protein C) (from UniProt P07204 242-515)”, the binding entry in assay [1] and in assay [5] was “binds” in each case.
Consider “recombinant mammalian-expressed rTMD23 (recombinant human thrombomodulin domain 2 plus domain 3, Ala242-Ser515) (from UniProt P07204 242-515)”, for which the binding entry in assay [6] and in assay [2] was “binds” throughout.

B1: recombinant CD14 (R&D Systems) (receptor)
chain: TTPEPCELDDEDFRCVCNFSEPQPDWSEAFQCVSAVEVEIHAGGLNLEPFLKRVDADADPRQYADTVKALRVRRLTVGAAQVPAQLLVGALRVLAYSRLKELTLEDLKITGTMPPLPLEATGLALSSLRLRNVSWATGRSWLAELQQWLKPGLKVLSIAQAHSPAFSCEQVRAFPALTSLDLSDNPGLGERGLMAALCPHKFPAIQNLALRNTGMETPTGVCAALAAAGVQPHSLDLSHNSLRATVNPSAPRCMWSSALNSLNLSFAGLEQVPKGLPAKLRVLDLSCNRLNRAPQPDELPEVDNLTLDGNPFLVPGTALPHEGSMNSGVVPAC
For B1, the binding entry in assay [7] was “binds”.
